From US5204445A (The Scripps Research Institute, priority 1989, dated 1993)

Test: general procedure: Boc solid-phase peptide synthesis; peptidylglycine a-amidating monooxygenase resins
Conditions: whole synthesis, homogeneity by HPLC, C18 μBondapak

With KYGRRGDS the “purity (crude or final not stated)” value was over 85%.

End groups of sequences in plain letters are not given here.
